SMILES strings stand for the structures. This is one part of the list.

A short description of the assay: hypoxia reporter signal reduction in M. tuberculosis – fluorescence, absorbance growth readout, primary screen (AID 1159583). The following applies: M. tuberculosis hypoxia-regulated fluorescent reporter, measured here: M. tuberculosis growth (absorbance), stronger effect = higher value, concentration not given here.
`COc1ccc(C(=O)NCC2(N3CCOCC3)CCCCC2)cc1OC`: the growth inhibition came to 13.8%. `COc1cc(C(=O)NCC2(N3CCOCC3)CCCCC2)cc(OC)c1C`: the growth inhibition was 74.8%. Next, `O=C(NCC1(N2CCOCC2)CCCCC1)c1cc(Br)ccc1Cl`: 30.2%; `CCc1cc(C(=O)NCC2(N3CCCCC3)CCCCC2)sc1C`: -1.34%. Then `O=C(OC1CN2CCC1CC2)C1c2ccccc2C=Cc2ccccc21` (centres undefined), with 6.23%. Then `CCOC(=O)N1CCC(Nc2ccc(C)cc2)CC1`, with -6.33%.

`N#Cc1ccc(C(=O)NCC2(N3CCCCC3)CCCCC2)cc1`: the growth inhibition was 1.54%. Then `CC(C)(C)OC(=O)N1CCC(N(C(=O)c2ccccc2)c2ccc(Cl)cc2)CC1`, with 9.91%; and `CN(C)C1(CNC(=O)c2cccc(C#N)c2)CCCCC1`, with -2.34%. Next, `CCCN1CCC(Nc2cc(OC)cc(OC)c2)CC1`: 3.23%. Then `Fc1ccccc1NC1CCN(Cc2ccccc2)CC1`, with -0.132%; and `Cc1ccc(C(=O)NCC2(N3CCCCC3)CCCCC2)o1`, with -0.00727%. In the case of `Cc1ccc(NC2(C#N)CCN(Cc3ccccc3)CC2)cc1`, the growth inhibition was determined as 7.97%.

Turning to `CC(=O)N(c1ccccc1)C1CCNCC1`, the growth inhibition came out at 0.589%. Next, `COc1cc(OC)cc(C(=O)NCC2(N3CCCCC3)CCCCC2)c1`: -3.22%. For the compound `CN(C)c1ccc(C(=O)NCC2(N3CCCCC3)CCCCC2)cc1`, the growth inhibition is 5.91%. Then `Cn1c(=O)[nH]cc(N(CCCl)CCCl)c1=O`, with 7.51%.

In the case of `O=C(NCC1(N2CCCCC2)CCCCC1)c1ccco1`, the growth inhibition was found to be 11.8%. With `CCN1CCC(Nc2cccc(F)c2)CC1`, the growth inhibition amounted to 4.03%. With `Cc1ccccc1NC1(C#N)CCN(Cc2ccccc2)CC1`, the growth inhibition was determined as 9.35%.

For `O=C(O)C1(Nc2ccccc2)CCN(Cc2ccccc2)CC1`, the growth inhibition came to 8.63%. As to `CC(C)(C)OC(=O)N1CCC(Nc2ccccc2)CC1`, the growth inhibition was 8.1%. Take `CCCOc1ccc(C(=O)NCC2(N(C)C)CCCCC2)cc1`: the growth inhibition was found to be 9.43%. Next, `CN1CCC(Nc2ccc(F)c(Cl)c2)CC1`: -0.117%; `CCOc1ncccc1C(=O)NCC1(N2CCOCC2)CCCCC1`: 1.86%. In the case of `CN1CCC(Nc2ccc(Cl)cc2)CC1`, the growth inhibition came to 10.9%.

Turning to `COc1cccc(C(=O)N(c2cc(C)cc(C)c2)C2CCN(C(=O)OC(C)(C)C)CC2)c1`, the growth inhibition was -4.42%. For `COc1cc(OC)cc(C(=O)NCC2(N3CCOCC3)CCCCC2)c1`, the growth inhibition came to 10.7%.

Consider `Cc1cccc(NC2(C#N)CCN(Cc3ccccc3)CC2)c1`, for which the growth inhibition was found to be 8.89%. Then `CSc1ccccc1C(=O)NCC1(N2CCCCC2)CCCCC1`, with 1.15%; and `COc1ccc(C(=O)NCC2(N3CCCCC3)CCCCC2)c(OC)c1OC`, with 3.29%; and `CC(C)(C)OC(=O)N1CCC(N(C(=O)c2ccccc2)c2ccc(F)cc2)CC1`, with 1.65%.

Take `COc1ccc(C(=O)NCC2(N3CCCCC3)CCCCC2)cc1`: the growth inhibition came to 12.8%. With `O=C(NCC1(N2CCCCC2)CCCCC1)c1cccs1`, the growth inhibition was -1.48%.

Source of the values: PubChem BioAssay AID1159583 (ICCB-Longwood Screening Facility, Harvard Medical School, 2016).
